Publication PMC8005928
These are yes or no findings as the source states them, for the method shown. Binding seen in cells or lysates may run through a third protein. For some of these results: A result given as binding can be weak or reduced; the word gives no strength.

What was measured:
Assay in all cases: co-IP; lysates of COS7 cells transfected with full-length ARID3A or deletion mutants; polyclonal anti-ARID3A IP, Western blot with an EZRIN monoclonal antibody
ARID3A d521–541 = target: T1, ARID3A d521–541 (UniProt Q62431)
T1 sequence: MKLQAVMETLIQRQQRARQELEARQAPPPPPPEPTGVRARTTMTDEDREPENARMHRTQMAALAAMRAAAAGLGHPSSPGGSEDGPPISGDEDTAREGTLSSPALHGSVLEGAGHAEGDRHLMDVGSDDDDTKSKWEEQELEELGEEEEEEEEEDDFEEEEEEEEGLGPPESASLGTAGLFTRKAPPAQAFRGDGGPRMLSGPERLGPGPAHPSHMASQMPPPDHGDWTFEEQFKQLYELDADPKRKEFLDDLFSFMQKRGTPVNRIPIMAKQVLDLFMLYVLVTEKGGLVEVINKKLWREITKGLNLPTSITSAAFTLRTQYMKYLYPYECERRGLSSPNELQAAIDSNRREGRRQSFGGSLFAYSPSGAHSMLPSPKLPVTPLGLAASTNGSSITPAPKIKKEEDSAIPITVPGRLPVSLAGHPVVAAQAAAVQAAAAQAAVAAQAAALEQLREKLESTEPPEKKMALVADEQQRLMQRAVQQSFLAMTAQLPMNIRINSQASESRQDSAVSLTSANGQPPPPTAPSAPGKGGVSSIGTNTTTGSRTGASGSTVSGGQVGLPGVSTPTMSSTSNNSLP

ARID3A d453–500 = target: T2, ARID3A d453–500 (UniProt Q62431)
T2 sequence: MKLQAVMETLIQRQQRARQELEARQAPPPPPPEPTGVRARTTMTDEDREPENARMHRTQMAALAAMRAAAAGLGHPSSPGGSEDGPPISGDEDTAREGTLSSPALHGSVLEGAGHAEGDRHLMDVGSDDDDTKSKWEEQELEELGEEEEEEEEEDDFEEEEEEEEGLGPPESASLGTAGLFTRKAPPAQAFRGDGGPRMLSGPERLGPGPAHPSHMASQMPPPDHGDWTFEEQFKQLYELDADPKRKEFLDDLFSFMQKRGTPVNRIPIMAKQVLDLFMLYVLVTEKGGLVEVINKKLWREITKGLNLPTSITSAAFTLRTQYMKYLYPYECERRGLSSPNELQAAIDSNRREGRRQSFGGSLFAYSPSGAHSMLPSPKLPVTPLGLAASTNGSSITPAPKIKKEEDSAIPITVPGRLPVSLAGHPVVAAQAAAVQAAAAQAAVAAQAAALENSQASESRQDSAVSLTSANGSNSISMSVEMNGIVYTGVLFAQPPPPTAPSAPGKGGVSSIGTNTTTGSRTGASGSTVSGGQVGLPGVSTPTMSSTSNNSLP

[1] = target: T3, full-length ARID3A (residues 1–601) (UniProt Q62431)
T3 sequence: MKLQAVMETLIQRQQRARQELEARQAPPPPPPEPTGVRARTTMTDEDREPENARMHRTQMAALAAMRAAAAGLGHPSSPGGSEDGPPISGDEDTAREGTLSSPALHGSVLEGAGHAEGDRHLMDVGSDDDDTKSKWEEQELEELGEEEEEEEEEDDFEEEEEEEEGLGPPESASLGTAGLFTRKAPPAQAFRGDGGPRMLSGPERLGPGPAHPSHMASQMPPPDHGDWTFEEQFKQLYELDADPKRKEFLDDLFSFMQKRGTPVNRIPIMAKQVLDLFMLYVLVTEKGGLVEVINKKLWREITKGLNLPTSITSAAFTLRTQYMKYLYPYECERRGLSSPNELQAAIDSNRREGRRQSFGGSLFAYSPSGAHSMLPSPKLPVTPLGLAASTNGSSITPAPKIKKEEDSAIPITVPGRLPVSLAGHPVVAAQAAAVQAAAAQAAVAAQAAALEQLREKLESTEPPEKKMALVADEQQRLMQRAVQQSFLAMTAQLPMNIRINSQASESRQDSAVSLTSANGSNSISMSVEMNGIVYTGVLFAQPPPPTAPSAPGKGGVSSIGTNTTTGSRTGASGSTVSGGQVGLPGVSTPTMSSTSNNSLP

ARID3A t1–541 = target: T4, ARID3A t1–541 (UniProt Q62431)
T4 sequence: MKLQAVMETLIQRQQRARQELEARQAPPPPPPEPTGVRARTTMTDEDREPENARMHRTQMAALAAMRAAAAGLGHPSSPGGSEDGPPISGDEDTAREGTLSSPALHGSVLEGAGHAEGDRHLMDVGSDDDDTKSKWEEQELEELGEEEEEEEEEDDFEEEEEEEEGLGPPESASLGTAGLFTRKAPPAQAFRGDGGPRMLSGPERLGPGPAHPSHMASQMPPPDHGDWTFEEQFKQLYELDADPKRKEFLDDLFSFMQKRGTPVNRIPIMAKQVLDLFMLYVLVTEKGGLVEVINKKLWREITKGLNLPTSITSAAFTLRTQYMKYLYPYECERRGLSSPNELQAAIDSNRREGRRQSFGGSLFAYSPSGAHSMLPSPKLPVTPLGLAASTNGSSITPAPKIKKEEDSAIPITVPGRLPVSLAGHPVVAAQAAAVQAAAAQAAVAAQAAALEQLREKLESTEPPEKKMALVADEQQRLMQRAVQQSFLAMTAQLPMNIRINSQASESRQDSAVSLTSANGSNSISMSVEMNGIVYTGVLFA

**Q.** EZRIN (COS7 cells) was tested. Which binding (ARID3A d521–541) did it give?
**A.** no binding

**Q.** What about the binding (ARID3A d453–500) of the same substance?
**A.** no binding

**Q.** And the binding [1]?
**A.** binds

**Q.** And the binding (ARID3A t1–541)?
**A.** binds
